According to the supplement of paper PMC6078165:

Test system: BT20
Assay: relative JC-1 red fluorescence (viability) vs pre-drug, coculture with fibroblast (fraction); higher = more viable cancer cells
Protocol: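 JC-1 labelled TNBC cells cocultured 1:1 (1,500 cells each) with CellTrace Violet stained primary or stromal fibroblasts in 384-well plates in FluoroBrite medium, treated with one of 42 anticancer drugs at 0.1, 1, 10 or 100 uM. JC-1 red fluorescence (mitochondrial integrity in cancer cells only) was read by plate reader every 8 h for 72 h. Values are normalised to each well's pre-drug value. The stock of one drug was tenfold lower, so its dose labels may be too high.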

O=NN(CCCl)C(=O)NC1CCCCC1 [Lomustine]
relative JC-1 red fluorescence
Conditions | 8 h | 16 h | 24 h | 32 h | 40 h | 48 h | 56 h | 64 h | 72 h
0.1 µM, coculture fibroblast: C12385 | 0.892 | 0.844 | 0.836 | 0.803 | 0.766 | 0.751 | 0.747 | 0.758 | 0.75
0.1 µM, coculture fibroblast: H6013 | 0.914 | 0.889 | 0.871 | 0.8239 | 0.8005 | 0.781 | 0.791 | 0.777 | 0.764
0.1 µM, coculture fibroblast: H6019 | 0.8629 | 0.7975 | 0.7904 | 0.73 | 0.68 | 0.6568 | 0.616 | 0.5921 | 0.572
0.1 µM, coculture fibroblast: H6076 | 0.858 | 0.953 | 0.894 | 0.87 | 0.854 | 0.84 | 0.839 | 0.838 | 0.835
0.1 µM, coculture fibroblast: H6231 | 0.833 | 0.902 | 0.8264 | 0.766 | 0.722 | 0.68 | 0.653 | 0.633 | 0.613
0.1 µM, coculture fibroblast: HADF | 0.935 | 0.865 | 0.81818 | 0.77649 | 0.7517 | 0.7214 | 0.718 | 0.703 | 0.681
0.1 µM, coculture fibroblast: HCFa | 0.93 | 0.878 | 0.844 | 0.78 | 0.733 | 0.694 | 0.668 | 0.644 | 0.615
0.1 µM, coculture fibroblast: HCPF | 0.893 | 0.89 | 0.8069 | 0.762 | 0.733 | 0.704 | 0.673 | 0.669 | 0.639
0.1 µM, coculture fibroblast: HHSteC | 0.919 | 0.892 | 0.878 | 0.82 | 0.789 | 0.754 | 0.73 | 0.713 | 0.692
0.1 µM, coculture fibroblast: HMF | 0.833 | 0.925 | 0.836 | 0.787 | 0.742 | 0.701 | 0.674 | 0.639 | 0.622
0.1 µM, coculture fibroblast: HPFa | 0.9223 | 0.9162 | 0.9435 | 0.871 | 0.853 | 0.814 | 0.795 | 0.7672 | 0.707
0.1 µM, coculture fibroblast: HUF | 0.897 | 0.82 | 0.791 | 0.706 | 0.663 | 0.623 | 0.602 | 0.599 | 0.585
0.1 µM, coculture fibroblast: Hs5 | 0.88 | 0.926 | 0.8503 | 0.8064 | 0.753 | 0.717 | 0.691 | 0.6624 | 0.6366
0.1 µM, coculture fibroblast: Hs27A | 0.904 | 0.878 | 0.872 | 0.894 | 0.84 | 0.846 | 0.829 | 0.822 | 0.94
0.1 µM, coculture fibroblast: Hs343T | 0.9925 | 0.919 | 0.836 | 0.781 | 0.743 | 0.701 | 0.667 | 0.657 | 0.628
0.1 µM, coculture fibroblast: WS1 | 0.863 | 0.779 | 0.72 | 0.644 | 0.58 | 0.555 | 0.527 | 0.501 | 0.489
1 µM, coculture fibroblast: C12385 | 0.897 | 0.79 | 0.726 | 0.654 | 0.601 | 0.568 | 0.539 | 0.517 | 0.502
1 µM, coculture fibroblast: H6013 | 0.988 | 0.891 | 0.854 | 0.821 | 0.764 | 0.733 | 0.712 | 0.679 | 0.654
1 µM, coculture fibroblast: H6019 | 0.8694 | 0.805 | 0.799 | 0.744 | 0.702 | 0.691 | 0.656 | 0.628 | 0.609
1 µM, coculture fibroblast: H6076 | 0.86 | 0.903 | 0.801 | 0.769 | 0.728 | 0.707 | 0.6886 | 0.6824 | 0.663
1 µM, coculture fibroblast: H6231 | 0.861 | 0.9289 | 0.8119 | 0.7385 | 0.682 | 0.637 | 0.604 | 0.581 | 0.554
1 µM, coculture fibroblast: HADF | 0.801 | 0.954 | 0.911 | 0.898 | 0.867 | 0.839 | 0.816 | 0.793 | 0.772
1 µM, coculture fibroblast: HCFa | 0.935 | 0.855 | 0.817 | 0.762 | 0.721 | 0.681 | 0.641 | 0.617 | 0.578
1 µM, coculture fibroblast: HCPF | 0.878 | 0.906 | 0.809 | 0.762 | 0.7255 | 0.685 | 0.6375 | 0.6305 | 0.5942
1 µM, coculture fibroblast: HHSteC | 0.92 | 0.853 | 0.86 | 0.786 | 0.744 | 0.707 | 0.683 | 0.667 | 0.624
1 µM, coculture fibroblast: HMF | 0.888 | 0.917 | 0.816 | 0.766 | 0.715 | 0.668 | 0.626 | 0.591 | 0.569
1 µM, coculture fibroblast: HPFa | 0.9277 | 0.837 | 0.837 | 0.754 | 0.713 | 0.653 | 0.62 | 0.583 | 0.532
1 µM, coculture fibroblast: HUF | 0.892 | 0.7892 | 0.739 | 0.654 | 0.6 | 0.56 | 0.536 | 0.513 | 0.5
1 µM, coculture fibroblast: Hs5 | 0.745 | 0.9235 | 0.835 | 0.776 | 0.728 | 0.681 | 0.633 | 0.589 | 0.55
1 µM, coculture fibroblast: Hs27A | 0.833 | 0.855 | 0.916 | 0.915 | 0.874 | 0.848 | 0.823 | 0.796 | 0.744
1 µM, coculture fibroblast: Hs343T | 0.9747 | 0.853 | 0.752 | 0.701 | 0.654 | 0.618 | 0.577 | 0.56 | 0.532
1 µM, coculture fibroblast: WS1 | 0.8667 | 0.769 | 0.7281 | 0.667 | 0.616 | 0.589 | 0.567 | 0.552 | 0.547
10 µM, coculture fibroblast: C12385 | 0.895 | 0.888 | 0.885 | 0.822 | 0.763 | 0.741 | 0.717 | 0.692 | 0.683
10 µM, coculture fibroblast: H6013 | 0.947 | 0.9448 | 0.964 | 0.935 | 0.9315 | 0.9303 | 0.965 | 0.955 | 0.96
10 µM, coculture fibroblast: H6019 | 0.867 | 0.801 | 0.81 | 0.7508 | 0.7113 | 0.709 | 0.684 | 0.667 | 0.655
10 µM, coculture fibroblast: H6076 | 0.877 | 0.938 | 0.89 | 0.8651 | 0.8565 | 0.836 | 0.834 | 0.833 | 0.821
10 µM, coculture fibroblast: H6231 | 0.814 | 0.9439 | 0.877 | 0.819 | 0.781 | 0.745 | 0.707 | 0.679 | 0.647
10 µM, coculture fibroblast: HADF | 0.9473 | 0.895 | 0.857 | 0.822 | 0.798 | 0.758 | 0.746 | 0.737 | 0.707
10 µM, coculture fibroblast: HCFa | 0.922 | 0.885 | 0.863 | 0.805 | 0.767 | 0.727 | 0.697 | 0.663 | 0.629
10 µM, coculture fibroblast: HCPF | 0.973 | 0.888 | 0.838 | 0.801 | 0.768 | 0.74 | 0.719 | 0.717 | 0.687
10 µM, coculture fibroblast: HHSteC | 0.951 | 0.863 | 0.932 | 0.843 | 0.806 | 0.889 | 0.795 | 0.8155 | 0.749
10 µM, coculture fibroblast: HMF | 0.984 | 0.908 | 0.835 | 0.786 | 0.732 | 0.7 | 0.682 | 0.66 | 0.63
10 µM, coculture fibroblast: HPFa | 0.946 | 0.926 | 0.941 | 0.863 | 0.848 | 0.805 | 0.779 | 0.743 | 0.686
10 µM, coculture fibroblast: HUF | 0.896 | 0.839 | 0.837 | 0.775 | 0.728 | 0.703 | 0.69 | 0.683 | 0.672
10 µM, coculture fibroblast: Hs5 | 0.893 | 0.9177 | 0.848 | 0.819 | 0.786 | 0.747 | 0.7252 | 0.688 | 0.677
10 µM, coculture fibroblast: Hs27A | 0.878 | 0.853 | 0.805 | 0.858 | 0.834 | 0.847 | 0.76 | 0.813 | 0.744
10 µM, coculture fibroblast: Hs343T | 0.885 | 0.9011 | 0.8219 | 0.776 | 0.729 | 0.687 | 0.646 | 0.621 | 0.591
10 µM, coculture fibroblast: WS1 | 0.8595 | 0.803 | 0.797 | 0.747 | 0.696 | 0.68 | 0.653 | 0.638 | 0.621
100 µM, coculture fibroblast: C12385 | 0.877 | 0.851 | 0.857 | 0.805 | 0.752 | 0.727 | 0.708 | 0.695 | 0.66
100 µM, coculture fibroblast: H6013 | 0.909 | 0.873 | 0.9 | 0.869 | 0.859 | 0.84 | 0.847 | 0.836 | 0.827
100 µM, coculture fibroblast: H6019 | 0.843 | 0.797 | 0.7824 | 0.729 | 0.6792 | 0.671 | 0.641 | 0.613 | 0.602
100 µM, coculture fibroblast: H6076 | 0.9569 | 0.86 | 0.809 | 0.789 | 0.786 | 0.776 | 0.777 | 0.788 | 0.786
100 µM, coculture fibroblast: H6231 | 0.889 | 0.913 | 0.82 | 0.758 | 0.705 | 0.655 | 0.604 | 0.587 | 0.553
100 µM, coculture fibroblast: HADF | 0.946 | 0.9568 | 0.86 | 0.952 | 0.855 | 0.799 | 0.819 | 0.82 | 0.746
100 µM, coculture fibroblast: HCFa | 0.925 | 0.92 | 0.907 | 0.878 | 0.858 | 0.837 | 0.827 | 0.809 | 0.778
100 µM, coculture fibroblast: HCPF | 0.915 | 0.8895 | 0.8365 | 0.8041 | 0.767 | 0.723 | 0.689 | 0.678 | 0.633
100 µM, coculture fibroblast: HHSteC | 0.905 | 0.871 | 0.865 | 0.803 | 0.755 | 0.723 | 0.696 | 0.667 | 0.635
100 µM, coculture fibroblast: HMF | 0.917 | 0.763 | 0.697 | 0.659 | 0.631 | 0.602 | 0.581 | 0.561 | 0.536
100 µM, coculture fibroblast: HPFa | 0.937 | 0.8402 | 0.875 | 0.73 | 0.814 | 0.742 | 0.712 | 0.734 | 0.798
100 µM, coculture fibroblast: HUF | 0.905 | 0.851 | 0.833 | 0.751 | 0.711 | 0.67 | 0.65 | 0.631 | 0.614
100 µM, coculture fibroblast: Hs5 | 0.888 | 0.916 | 0.869 | 0.837 | 0.814 | 0.787 | 0.761 | 0.751 | 0.7403
100 µM, coculture fibroblast: Hs27A | 0.877 | 0.778 | 0.951 | 0.9814 | 0.9562 | 0.9498 | 0.92404 | 0.9019 | 0.8552
100 µM, coculture fibroblast: Hs343T | 0.977 | 0.838 | 0.741 | 0.686 | 0.657 | 0.616 | 0.582 | 0.56 | 0.527
100 µM, coculture fibroblast: WS1 | 0.823 | 0.761 | 0.748 | 0.699 | 0.648 | 0.614 | 0.595 | 0.5757 | 0.5582

Values are relative to the signal before dosing, not to a vehicle control; the signal also falls without drug.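 Fibroblast labels name human fibroblasts: mostly primary ones from tissues such as uterus (C12385, HUF), lung (H6013), bone (Hs27A), adrenal (HADF) and skin (WS1), plus mammary HMF and breast cancer-associated Hs343T. The cancer cells are basal-like or mesenchymal-like triple-negative breast cancer lines. The paper calls a changed response a hit when it shifts by more than 3x the replicate standard deviation. The tissue of the other fibroblasts is not given here.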
